Cell number change and AC50 data for 60 compounds are collected here from PubChem BioAssay AID2685 (National Center for Advancing Translational Sciences (NCATS), 2010).

This is one part of the list. The main result of the screen is listed elsewhere. These columns were measured beside it and carry no call. Compounds called inactive in the main read-out are mostly missing here. The note in brackets gives the kind of curve behind each potency; many fits are weak.

This experiment is described as follows: qHTS Assay for Lipid Storage Modulators in Drosophila S3 Cells.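 As to Cell number change: cells counted by Cell Tracker Red CMTPX staining in the red channel.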 The settings on record: BODIPY lipid droplet fluorescence, 18-24 h; for cell number change: measured here: cell count max response, cells fed with added oleic acid. Summed up:
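Drosophila S3 cells got compounds at several concentrations plus oleic acid (400 uM solution). Laser-scanning cytometry with 488 nm excitation read lipid droplets at 500-530 nm and cells at 575-640 nm. Percent activity was relative to 20 uM Triacsin C.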
For orientation: Quantitative high-throughput screening tests each substance at several concentrations.

Setting [1] is: measured here: lipid fluorescence (Fed channel) AC50, cells fed with added oleic acid.
Setting [2] is: measured here: cell number channel AC50, cells fed with added oleic acid.

Turning to `O=C(CC1C(=O)NCCN1Cc1ccc(F)cc1)NC1CCCCCCC1` (stereo not given), the cell number change is -8.49%. The half-maximal activity concentration (AC50) (commonly the midpoint of the concentration-response curve, whichever way the signal moves) under setting [1] is 0.58 µM [rising, single point]. Regarding `CCC(=O)Nc1ccc(-c2nn3c(C)nnc3s2)cc1C`, the cell number change was -0.929%. Also, the half-maximal activity concentration (AC50) under setting [1] was 2.91 µM [rising, partial curve, poor fit].

Take `Cc1ccc(N=Cc2cc3c(cc2O)OC(N)=C(C#N)C3c2ccccc2)cc1` (stereo not given): the cell number change was -42.8%. Moreover, under setting [2], the AC50 was 29.1 µM [falling, single point]. Besides, the half-maximal activity concentration (AC50) under setting [1] is 29.1 µM [falling, single point]. In the case of `Cc1cccc(NC(=O)c2nc[nH]c2C(=O)N[C@@H](C)c2ccccc2)c1`, the cell number change was -83.7%. For the same compound, the concentration at half-maximal activity (AC50) under setting [2] is 29.1 µM [falling, single point]. Take `O=C(COc1ccc(Br)cc1)N(Cc1cccs1)C1CCS(=O)(=O)C1` (stereo not given): the cell number change was found to be 1.49%. Also, under setting [2], the AC50 is 0.82 µM [falling, single point].

On to `CC(=O)Nc1cccc(NC(=O)Cc2ccc3ccccc3c2)c1`, for which the cell number change was 27%. Further, the concentration at half-maximal activity (AC50) under setting [1] is 2.06 µM [rising, partial curve]. For `C=CCc1cccc(/C=N/NC(=O)C(C)Nc2ccc(C)cc2)c1O` (stereo not given), the cell number change was 14.1%. Moreover, the AC50 under setting [1] was 0.58 µM [falling, single point]. On to `O=C(CN1CCN(S(=O)(=O)c2ccc(Cl)s2)CC1)N1CCCCC1`, for which the cell number change is 8.18%. For `COc1cc(C(=O)N2CCSCC2)ccc1OC1CCN(C(C)=O)CC1`, the cell number change is 12.3%. Moreover, the half-maximal activity concentration (AC50) under setting [1] is 6.51 µM [rising, single point]. As for `Cc1ccccc1C(=O)NNC1=NCCC1`, the cell number change was -11.6%. In addition, under setting [1], the AC50 was 23.1 µM [falling, partial curve].

Take `CC1CCCCC1NC(=O)CCCn1c(=S)[nH]c2ccsc2c1=O` (stereo not given): the cell number change is -65.5%. Also, under setting [2], the AC50 was 18.4 µM [falling, single point]. The AC50 under setting [1] is 23.1 µM [falling, single point]. As for `CCc1cccc(NC(=O)CCCN2C(=O)NC(C)(C)C2=O)c1`, the cell number change was 2.98%. Consider `CCC(C)(C)n1nnnc1C(c1cccs1)N1CCN(Cc2ccccc2)CC1` (stereo not given), for which the cell number change turned out to be 6.1%. Moreover, under setting [1], the half-maximal activity concentration (AC50) was 5.8 µM [rising, partial curve]. On to `O=C(c1ccc(COc2ccccc2Br)cc1)N1CCCCC1`, for which the cell number change was found to be 54%. Further, under setting [2], the AC50 is 1.84 µM [rising, full curve]. In addition, the AC50 under setting [1] was 1.46 µM [rising, full curve]. Regarding `Cc1cc(C)c(C(=O)COC(=O)CNC(=O)c2ccccc2C)c(C)c1`, the cell number change is -25%. For the same compound, the concentration at half-maximal activity (AC50) under setting [2] was 0.116 µM [rising, partial curve, poor fit]. For the same compound, the AC50 under setting [1] is 5.17 µM [rising, full curve, poor fit]. Regarding `CC1(C)CC2CC(C)(CN2C(=O)COC(=O)c2cccc(O)c2)C1` (stereo not given), the cell number change was -20.6%. In addition, the concentration at half-maximal activity (AC50) under setting [1] was 5.8 µM [falling, partial curve, poor fit]. With `COCCCNCCOCCSc1ccc(Cl)cc1`, the cell number change was determined as 0.549%.

For the compound `COc1ccc(/C=N/NC(=O)c2nc(-c3ccccc3)cc(-c3ccccc3)n2)cc1OC`, the cell number change was -9.94%. Besides, the concentration at half-maximal activity (AC50) under setting [1] was 0.231 µM [rising, partial curve, poor fit]. On to `COc1ccc(Cn2nnnc2CN2CCC(c3nc4ccccc4s3)CC2)cc1`, for which the AC50 runs as follows: under setting [2], 6.51 µM [rising, single point]; under setting [1], 5.17 µM [rising, full curve].

`CCCSc1nc2c(c(=O)n(C)c(=O)n2C)n1Cc1ccc(C)cc1`: the cell number change was -11.7%. The same measure, in the same setting: then `O=C(CCN1C(=O)[C@@H]2Cc3ccccc3CN2C1=O)NCc1ccccc1`, with -22.8%.

With `COc1ccc(S(=O)(=O)N2CCC3(CC2)OCCN3S(=O)(=O)c2ccccc2)cc1OC`, the AC50 under setting [2] is 1.84 µM [rising, partial curve, poor fit]. As to `Cc1cc(C)c2nc(N(CCCN(C)C)C(=O)c3ccc(S(=O)(=O)N4CC(C)OC(C)C4)cc3)sc2c1` (stereo not given), the cell number change was -25%. Under setting [2], the half-maximal activity concentration (AC50) is 2.06 µM [rising, partial curve]. Turning to `COc1ccc(NC(=O)C(C)N2c3cccc4cccc(c34)S2(=O)=O)cc1OC` (stereo not given), the cell number change is -49.6%. Moreover, the half-maximal activity concentration (AC50) under setting [2] was 14.6 µM [falling, partial curve]. In addition, the AC50 under setting [1] was 14.6 µM [falling, partial curve]. For `CN(C(=O)CSc1nnc(-c2cccs2)n1C1CC1)C1CCS(=O)(=O)C1` (stereo not given), the cell number change is -5.87%. The AC50 under setting [1] was 16.4 µM [rising, single point]. For `Cn1cc(S(=O)(=O)N2CCCC(C(=O)O)C2)cn1` (stereo not given), the cell number change was -33.6%. Further, the AC50 under setting [2] is 18.4 µM [falling, single point]. As for `COC(=O)c1c(N2C(=O)CC(Sc3ncccc3C(=O)O)C2=O)sc(C)c1C` (stereo not given), the cell number change came out at 24.5%. In addition, the AC50 under setting [1] is 7.31 µM [rising, partial curve].

Consider `Cc1ccc(C(=O)N2CCN(S(=O)(=O)c3cc(Br)ccc3Br)CC2)o1`, for which the cell number change is 14.1%. In addition, the AC50 under setting [1] is 1.84 µM [falling, full curve]. Take `O=C(C1CCCN(S(=O)(=O)c2cccc3nsnc23)C1)N1CCCCCC1` (stereo not given): the cell number change is 4.81%. Moreover, the AC50 under setting [2] was 0.82 µM [falling, single point]. Further, the half-maximal activity concentration (AC50) under setting [1] was 0.82 µM [falling, single point]. In the case of `Cc1ccc(OCC(=O)Nc2ccc(N3CCCC3)cc2)cc1C`, the cell number change was -18.4%. On to `CC(=O)NC(NC(=S)Nc1ccc(C)cc1C)C(Cl)(Cl)Cl` (stereo not given), for which the cell number change is 9.92%. The half-maximal activity concentration (AC50) under setting [1] is 0.731 µM [falling, full curve]. As for `O=C(Nc1cccc(Cl)c1)c1nc[nH]c1C(=O)NCc1ccccc1`, the cell number change was -33.4%. For the same compound, the AC50 under setting [2] was 29.1 µM [falling, single point]. In the case of `Cc1cc2cc3c(cc2nc1SCC(=O)Nc1ccccc1)CCC3`, the cell number change was determined as 19.3%. Further, the concentration at half-maximal activity (AC50) under setting [1] was 29.1 µM [rising, single point]. For `CC(C)OC(=O)C1C(=O)CC(C)(O)C(C(=O)OC(C)C)C1c1cccc(O)c1` (stereo not given), the cell number change is -18.4%. Moreover, the AC50 under setting [1] is 23.1 µM [falling, single point]. Consider `Cc1cc(N/N=C/c2ccccc2)nc(N)n1`, for which the cell number change was -0.427%. Further, the AC50 under setting [1] was 1.16 µM [rising, partial curve]. On to `C/C(=N\NC(=O)CCc1ccccc1)C1C(=O)c2ccccc2C1=O`, for which the cell number change is -18.1%. Besides, under setting [1], the AC50 was 0.259 µM [falling, full curve]. With `Cc1ccc(C)c(N2CC(O)(c3cccs3)[N+]3=C2CCCC3)c1` (stereo not given), the cell number change is -15%. Further, the AC50 under setting [2] is 0.00731 µM [falling, full curve, poor fit]. Moreover, under setting [1], the concentration at half-maximal activity (AC50) was 0.651 µM [falling, full curve]. For the compound `COc1ccc(NC(=O)CSc2nnc(Cn3cnc4ccccc43)o2)cc1`, the AC50 reads like this: under setting [2], 0.651 µM [falling, single point]; under setting [1], 0.731 µM [falling, partial curve, poor fit]. Take `CCCNc1c(NS(=O)(=O)c2ccc(C)c(C)c2)c(=O)oc2ccccc12`: the AC50 under setting [1] is 0.231 µM [falling, full curve, poor fit].

Regarding `Fc1ccc(Cn2nnnc2CN2CCc3ccccc3C2)cc1`, the cell number change is 15%. For `Cc1ccc(NC(=O)c2cccc(Oc3ccc([N+](=O)[O-])cc3)c2)c(C(=O)O)c1`, the cell number change was 1.57%. Also, the half-maximal activity concentration (AC50) under setting [1] is 10.3 µM [rising, partial curve]. Turning to `Cc1ccc(C(c2c(C)[nH][nH]c2=O)c2c(C)[nH][nH]c2=O)cc1`, the cell number change turned out to be 30.3%. As to `COc1cc(-c2nnc(CSc3nnc4nc(C)cc(C)n34)o2)cc(OC)c1OC`, the cell number change worked out at 41.5%. Besides, under setting [2], the half-maximal activity concentration (AC50) was 9.2 µM [rising, partial curve]. In addition, the AC50 under setting [1] is 13 µM [rising, partial curve].

On to `CC(NC(=O)COC(=O)CSc1ccc(F)cc1)c1ccc(F)cc1` (stereo not given), for which the cell number change is -8.55%. For `CCc1ccc(N2C(=O)Cc3c2nc(N)c(C#N)c3N)cc1`, the cell number change worked out at 14.1%. In addition, the AC50 under setting [2] was 0.092 µM [rising, full curve]. Moreover, the AC50 under setting [1] is 0.0651 µM [rising, full curve, poor fit]. As to `CCCOc1ccc(C(=O)c2ccccc2C(=O)OC2CCOC2=O)cc1OCCC` (stereo not given), the cell number change is -4.95%. The AC50 under setting [1] was 1.03 µM [rising, partial curve].

`Cc1ccc(S(=O)(=O)NCC(=O)N(CC2CCCO2)C(C(=O)NC2CCCCC2)C(C)C)cc1` (stereo not given): the cell number change is 1.32%.

Regarding `COc1ccccc1Nc1cc(C(=O)NCc2cccnc2)c2ccccc2n1`, the cell number change was found to be 6.97%.

Take `C/C(CCc1ccccc1)=N\NC(=O)c1ccccc1[N+](=O)[O-]`: the AC50 reads like this: under setting [2], 0.731 µM [falling, single point]; under setting [1], 0.411 µM [falling, partial curve, poor fit]. For `CC(=O)Nc1ccc(NS(=O)(=O)c2ccc(Cl)c(C(=O)O)c2)cc1`, the cell number change is -12.9%. For the same compound, the AC50 under setting [1] was 32.6 µM [falling, single point]. Consider `Cc1ccc(-n2c(-c3nn(C)c(C)c3Cl)n[nH]c2=S)cc1`, for which the cell number change was found to be 78.6%. For the same compound, the AC50 under setting [2] was 9.2 µM [rising, partial curve]. Under setting [1], the half-maximal activity concentration (AC50) is 0.0517 µM [falling, single point].

Take `Cc1cc(-c2nn(C)c(=O)c3ccccc23)cc(C)c1O`: the cell number change was -2.17%. Still for that read-out and setting: then `NC(=O)c1nsc(C(=O)N(c2ccccc2)C(C(=O)NC2CCCCC2)c2ccc(O)cc2)c1N` (stereo not given), with -5.56%. In the case of `COc1ccc(C(=O)Nc2ccc(N3CCN(Cc4ccccc4)CC3)cc2)cc1`, the cell number change is -45.4%. Further, the AC50 under setting [2] is 18.4 µM [falling, single point]. Consider `C=CCn1c(SCC(=O)N2CCc3ccccc3C2)nc2sc(C)c(C)c2c1=O`, for which the cell number change is 54.9%. Also, under setting [2], the concentration at half-maximal activity (AC50) is 29.1 µM [rising, single point]. For the same compound, under setting [1], the concentration at half-maximal activity (AC50) is 3.26 µM [rising, single point].

Regarding `CN1CCC(=NNC(=O)C(=O)Nc2ccccc2)CC1`, the cell number change was 49.1%. Besides, the AC50 under setting [2] was 16.4 µM [rising, single point]. Turning to `Cc1cc(C)nc(SCc2nnc(SCC(=O)Nc3nccs3)n2Cc2ccco2)n1`, the cell number change is -6.61%. Further, the AC50 under setting [2] was 3.66 µM [rising, single point]. For the same compound, the half-maximal activity concentration (AC50) under setting [1] is 1.16 µM [rising, partial curve]. As for `CC1(C)CC(=O)C(=Cc2cn(CCC#N)nc2-c2ccc(F)cc2)C(=O)C1`, the cell number change is -23.4%. In addition, the AC50 under setting [1] is 29.1 µM [falling, single point]. `CCN(CC)CCN(C(=O)c1ccc2ccccc2c1)c1nc2ccc(F)cc2s1`: the cell number change was -0.917%.

Take `CC(C)(C)OC(=O)NCCCC[C@@H](C(=O)N1CCN(C(=O)OC(C)(C)C)CC1)n1cc(CCC(=O)O)nn1`: the cell number change was -26.4%.
